Assay results: the supplement of paper PMC11006884
What follows is the remainder of the data, with few or none of the targets with a hit. This is a noisy data set. Only a part is listed here, and it is no random draw.

Chains of the proteins cited; added tags and fusions are not shown. Lines headed by an entry give the natural chain unless they say otherwise; changes in a name come on top.
UniProt P35658: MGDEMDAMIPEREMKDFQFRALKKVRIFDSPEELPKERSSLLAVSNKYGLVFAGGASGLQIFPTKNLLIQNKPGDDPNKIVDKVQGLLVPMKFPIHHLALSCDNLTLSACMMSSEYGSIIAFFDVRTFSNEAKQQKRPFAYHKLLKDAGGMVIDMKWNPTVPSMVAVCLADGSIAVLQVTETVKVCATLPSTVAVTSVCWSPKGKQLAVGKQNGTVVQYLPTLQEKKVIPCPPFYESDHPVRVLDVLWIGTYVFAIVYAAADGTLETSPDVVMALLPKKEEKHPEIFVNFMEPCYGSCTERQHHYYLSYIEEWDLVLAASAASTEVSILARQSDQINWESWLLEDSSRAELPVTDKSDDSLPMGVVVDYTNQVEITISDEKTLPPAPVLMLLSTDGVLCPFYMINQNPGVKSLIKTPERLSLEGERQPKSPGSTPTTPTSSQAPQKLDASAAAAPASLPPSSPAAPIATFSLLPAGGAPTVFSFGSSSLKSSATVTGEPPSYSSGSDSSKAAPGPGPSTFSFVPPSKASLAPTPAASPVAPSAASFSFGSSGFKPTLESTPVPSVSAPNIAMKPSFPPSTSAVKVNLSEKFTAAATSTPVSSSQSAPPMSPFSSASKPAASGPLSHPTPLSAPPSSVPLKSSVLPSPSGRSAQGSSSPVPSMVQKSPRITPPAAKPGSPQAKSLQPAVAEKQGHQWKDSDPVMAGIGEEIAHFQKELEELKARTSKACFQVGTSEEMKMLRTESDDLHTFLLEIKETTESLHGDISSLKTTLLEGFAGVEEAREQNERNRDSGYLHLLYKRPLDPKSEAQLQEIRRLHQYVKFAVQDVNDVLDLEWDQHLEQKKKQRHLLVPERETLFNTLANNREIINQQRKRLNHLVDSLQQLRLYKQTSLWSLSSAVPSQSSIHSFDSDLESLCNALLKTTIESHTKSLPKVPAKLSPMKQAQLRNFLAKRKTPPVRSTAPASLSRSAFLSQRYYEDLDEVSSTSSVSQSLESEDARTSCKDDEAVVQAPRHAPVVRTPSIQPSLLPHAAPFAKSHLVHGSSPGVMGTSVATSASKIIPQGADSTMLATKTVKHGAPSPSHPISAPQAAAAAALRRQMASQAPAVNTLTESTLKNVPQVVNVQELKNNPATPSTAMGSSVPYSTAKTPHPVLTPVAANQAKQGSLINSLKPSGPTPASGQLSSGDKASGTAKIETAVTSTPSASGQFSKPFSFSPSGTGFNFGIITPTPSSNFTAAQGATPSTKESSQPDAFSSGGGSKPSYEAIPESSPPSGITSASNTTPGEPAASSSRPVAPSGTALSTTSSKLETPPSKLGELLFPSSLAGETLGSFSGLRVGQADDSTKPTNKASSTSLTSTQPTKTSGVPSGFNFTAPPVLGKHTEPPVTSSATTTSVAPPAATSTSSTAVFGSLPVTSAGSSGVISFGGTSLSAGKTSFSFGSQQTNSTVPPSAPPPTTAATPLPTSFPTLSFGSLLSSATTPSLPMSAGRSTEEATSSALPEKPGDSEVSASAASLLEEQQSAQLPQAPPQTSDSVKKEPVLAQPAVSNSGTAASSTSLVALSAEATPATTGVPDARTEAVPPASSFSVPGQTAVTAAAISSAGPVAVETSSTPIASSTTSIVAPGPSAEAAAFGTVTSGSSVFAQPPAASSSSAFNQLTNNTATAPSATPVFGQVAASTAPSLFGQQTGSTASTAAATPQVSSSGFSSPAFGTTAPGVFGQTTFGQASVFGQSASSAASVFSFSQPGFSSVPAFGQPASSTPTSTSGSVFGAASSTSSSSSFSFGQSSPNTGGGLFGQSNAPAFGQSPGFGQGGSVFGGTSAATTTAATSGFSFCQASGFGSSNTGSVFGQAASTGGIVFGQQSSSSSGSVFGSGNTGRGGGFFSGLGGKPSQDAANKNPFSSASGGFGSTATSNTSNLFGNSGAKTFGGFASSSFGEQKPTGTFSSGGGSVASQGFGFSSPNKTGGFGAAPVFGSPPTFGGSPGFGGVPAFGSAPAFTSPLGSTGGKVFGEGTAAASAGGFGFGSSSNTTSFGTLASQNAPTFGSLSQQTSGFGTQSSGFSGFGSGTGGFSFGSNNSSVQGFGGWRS
UniProt P36969, whole entry, looked up: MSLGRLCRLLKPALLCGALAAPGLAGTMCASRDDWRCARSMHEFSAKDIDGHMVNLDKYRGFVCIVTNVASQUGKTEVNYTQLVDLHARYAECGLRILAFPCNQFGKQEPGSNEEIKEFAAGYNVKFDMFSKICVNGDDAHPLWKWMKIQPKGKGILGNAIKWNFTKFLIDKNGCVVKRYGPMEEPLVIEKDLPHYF
UniProt P35998: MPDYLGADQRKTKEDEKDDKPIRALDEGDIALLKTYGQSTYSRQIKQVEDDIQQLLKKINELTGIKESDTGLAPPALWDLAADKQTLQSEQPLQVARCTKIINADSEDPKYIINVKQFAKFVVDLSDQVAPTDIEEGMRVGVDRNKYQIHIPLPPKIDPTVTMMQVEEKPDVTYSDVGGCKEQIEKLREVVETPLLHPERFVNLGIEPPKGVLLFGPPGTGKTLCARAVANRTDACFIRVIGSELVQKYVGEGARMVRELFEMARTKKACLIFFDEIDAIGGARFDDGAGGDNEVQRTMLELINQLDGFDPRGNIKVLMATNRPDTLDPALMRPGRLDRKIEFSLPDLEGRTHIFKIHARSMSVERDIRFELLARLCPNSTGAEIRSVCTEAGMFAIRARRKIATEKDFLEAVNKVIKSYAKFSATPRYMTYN
UniProt P35250, whole entry, looked up: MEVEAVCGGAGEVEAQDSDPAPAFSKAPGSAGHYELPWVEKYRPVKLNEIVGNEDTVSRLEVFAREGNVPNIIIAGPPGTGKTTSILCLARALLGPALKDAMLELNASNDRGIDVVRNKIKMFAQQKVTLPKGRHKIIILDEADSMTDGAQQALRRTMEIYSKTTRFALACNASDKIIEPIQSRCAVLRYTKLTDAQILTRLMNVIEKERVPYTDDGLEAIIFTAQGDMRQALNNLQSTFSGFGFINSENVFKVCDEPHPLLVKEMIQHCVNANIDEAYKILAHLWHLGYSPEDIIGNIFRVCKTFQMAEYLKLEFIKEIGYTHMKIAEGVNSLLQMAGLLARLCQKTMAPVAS
UniProt P30626: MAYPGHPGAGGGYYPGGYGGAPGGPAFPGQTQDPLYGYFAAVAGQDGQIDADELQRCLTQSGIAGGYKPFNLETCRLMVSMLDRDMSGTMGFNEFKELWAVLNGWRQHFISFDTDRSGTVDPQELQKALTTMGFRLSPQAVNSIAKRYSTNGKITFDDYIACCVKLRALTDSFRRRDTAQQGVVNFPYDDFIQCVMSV
UniProt P40227, whole entry, looked up: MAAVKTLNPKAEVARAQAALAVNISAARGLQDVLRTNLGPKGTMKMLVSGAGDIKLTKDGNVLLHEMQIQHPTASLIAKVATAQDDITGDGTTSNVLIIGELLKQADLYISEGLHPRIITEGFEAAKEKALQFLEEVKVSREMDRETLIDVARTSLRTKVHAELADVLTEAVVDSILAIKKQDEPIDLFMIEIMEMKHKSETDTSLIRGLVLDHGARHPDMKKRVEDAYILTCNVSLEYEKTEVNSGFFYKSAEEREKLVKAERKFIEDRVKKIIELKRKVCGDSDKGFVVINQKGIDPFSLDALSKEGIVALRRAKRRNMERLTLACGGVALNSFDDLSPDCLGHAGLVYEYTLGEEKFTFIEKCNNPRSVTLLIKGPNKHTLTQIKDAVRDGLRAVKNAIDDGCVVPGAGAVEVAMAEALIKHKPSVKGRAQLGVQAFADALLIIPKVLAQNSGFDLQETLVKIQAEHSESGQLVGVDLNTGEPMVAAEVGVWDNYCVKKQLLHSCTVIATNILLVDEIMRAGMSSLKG
UniProt P41221: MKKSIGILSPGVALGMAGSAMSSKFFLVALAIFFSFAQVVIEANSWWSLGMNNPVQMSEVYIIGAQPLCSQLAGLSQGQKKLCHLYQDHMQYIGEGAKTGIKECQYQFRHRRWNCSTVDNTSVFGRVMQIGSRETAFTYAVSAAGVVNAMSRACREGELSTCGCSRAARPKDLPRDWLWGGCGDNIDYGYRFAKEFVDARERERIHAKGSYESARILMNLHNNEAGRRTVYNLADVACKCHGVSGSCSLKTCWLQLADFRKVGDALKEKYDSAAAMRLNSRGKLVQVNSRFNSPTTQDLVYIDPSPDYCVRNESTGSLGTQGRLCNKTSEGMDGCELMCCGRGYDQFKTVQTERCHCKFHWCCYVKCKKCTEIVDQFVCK
UniProt P41240: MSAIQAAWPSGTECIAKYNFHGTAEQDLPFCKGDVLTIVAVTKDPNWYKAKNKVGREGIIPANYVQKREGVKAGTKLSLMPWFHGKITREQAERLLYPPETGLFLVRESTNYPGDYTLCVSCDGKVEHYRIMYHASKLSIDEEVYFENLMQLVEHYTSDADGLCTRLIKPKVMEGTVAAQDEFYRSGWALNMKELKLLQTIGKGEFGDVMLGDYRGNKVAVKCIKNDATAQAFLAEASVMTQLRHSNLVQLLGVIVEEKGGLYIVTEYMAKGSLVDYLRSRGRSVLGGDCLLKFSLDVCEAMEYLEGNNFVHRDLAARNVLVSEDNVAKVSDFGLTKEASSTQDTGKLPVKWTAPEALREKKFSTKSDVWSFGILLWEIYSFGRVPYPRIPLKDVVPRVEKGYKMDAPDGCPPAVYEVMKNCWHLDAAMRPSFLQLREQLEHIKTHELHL
UniProt P31930: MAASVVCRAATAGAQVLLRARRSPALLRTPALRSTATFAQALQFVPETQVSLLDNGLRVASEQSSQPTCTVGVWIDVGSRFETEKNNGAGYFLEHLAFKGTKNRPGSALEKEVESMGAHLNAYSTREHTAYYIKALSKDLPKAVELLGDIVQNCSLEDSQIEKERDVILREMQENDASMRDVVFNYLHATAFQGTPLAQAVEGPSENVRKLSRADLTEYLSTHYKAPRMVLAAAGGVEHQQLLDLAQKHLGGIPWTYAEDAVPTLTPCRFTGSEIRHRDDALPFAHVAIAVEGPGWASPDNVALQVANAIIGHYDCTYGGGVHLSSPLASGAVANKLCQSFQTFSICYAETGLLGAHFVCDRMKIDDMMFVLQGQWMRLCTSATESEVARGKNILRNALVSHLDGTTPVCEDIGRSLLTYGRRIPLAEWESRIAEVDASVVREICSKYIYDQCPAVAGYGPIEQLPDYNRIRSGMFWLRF
UniProt P34932: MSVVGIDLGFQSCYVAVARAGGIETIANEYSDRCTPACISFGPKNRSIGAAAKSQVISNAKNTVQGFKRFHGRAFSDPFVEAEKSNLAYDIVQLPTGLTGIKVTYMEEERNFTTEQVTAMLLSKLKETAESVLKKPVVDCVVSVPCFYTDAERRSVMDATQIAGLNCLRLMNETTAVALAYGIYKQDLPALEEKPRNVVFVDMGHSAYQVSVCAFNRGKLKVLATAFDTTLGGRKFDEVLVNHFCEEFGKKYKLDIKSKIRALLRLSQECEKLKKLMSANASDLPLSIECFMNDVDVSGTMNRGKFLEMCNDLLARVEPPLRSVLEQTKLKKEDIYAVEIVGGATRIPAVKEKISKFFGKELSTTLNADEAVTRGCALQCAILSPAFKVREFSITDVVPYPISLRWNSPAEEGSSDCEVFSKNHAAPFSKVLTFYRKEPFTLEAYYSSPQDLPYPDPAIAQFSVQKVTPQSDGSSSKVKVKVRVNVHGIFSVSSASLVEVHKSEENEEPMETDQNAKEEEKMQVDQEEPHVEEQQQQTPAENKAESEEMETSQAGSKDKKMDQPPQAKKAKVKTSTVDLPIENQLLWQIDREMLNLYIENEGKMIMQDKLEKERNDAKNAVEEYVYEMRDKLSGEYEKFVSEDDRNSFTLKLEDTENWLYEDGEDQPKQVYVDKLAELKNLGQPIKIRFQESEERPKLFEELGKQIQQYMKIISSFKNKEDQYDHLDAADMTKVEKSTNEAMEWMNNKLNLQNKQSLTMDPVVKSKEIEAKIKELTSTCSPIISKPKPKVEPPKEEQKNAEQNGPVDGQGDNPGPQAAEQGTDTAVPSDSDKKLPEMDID
UniProt P39748, whole entry, looked up: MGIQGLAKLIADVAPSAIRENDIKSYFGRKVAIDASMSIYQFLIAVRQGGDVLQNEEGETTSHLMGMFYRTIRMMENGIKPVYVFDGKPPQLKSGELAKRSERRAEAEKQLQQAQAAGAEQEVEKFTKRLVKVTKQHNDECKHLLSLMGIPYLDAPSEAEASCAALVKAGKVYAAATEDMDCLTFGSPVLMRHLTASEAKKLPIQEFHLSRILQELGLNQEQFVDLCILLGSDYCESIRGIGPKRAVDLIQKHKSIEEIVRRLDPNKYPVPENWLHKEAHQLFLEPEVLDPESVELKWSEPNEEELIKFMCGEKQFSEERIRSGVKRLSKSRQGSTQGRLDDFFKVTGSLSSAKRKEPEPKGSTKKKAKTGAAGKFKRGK

compound: COC(=O)/C=C/c1ccccc1 [methyl cinnamate]; assay: log2 ratio of iodoacetamide-alkyne labeling of the cysteine site, DMSO over compound (competition); higher = stronger covalent engagement of the cysteine by the compound, active = 1 or more; details: 500 µM; treatment time 1 h; system: HEK293T cell lysate
Method in brief: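 The log2 competition ratio per cysteine is defined as mean reporter intensity in control channels over mean reporter intensity in compound channels. Lysate from HEK293T cells (2 mg/mL) received electrophile (500 µM) or vehicle for 1 h at ambient temperature, followed by iodoacetamide alkyne for 1 h. Samples were clicked to sCIP-TMT reagents, pooled, trypsin-digested overnight at 37 °C, streptavidin-enriched, acid-eluted and run on Orbitrap Eclipse LC-MS/MS with FAIMS, with quantification in FragPipe. Three replicates with duplicate channels were used, and any cysteine quantified in only one replicate was excluded.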

log2 ratio of iodoacetamide-alkyne labeling, inactive:
TMPO C280 (UniProt P42166) 0.153
NUP214 C728 (UniProt P35658) 0.314
PPP2R1A C148 (UniProt P30153) -0.0147
FUS C444 (UniProt P35637) 0.0151
UniProt P42677_C77 0.248
GPX4 C93 (UniProt P36969) 0.307
PSMC2 C377 (UniProt P35998) 0.0647
ALDH1B1 C169 (UniProt P30837) 0.216
IARS C1001 (UniProt P41252) 0.312
RFC2 C88 (UniProt P35250) 0.0927
MYH9 C917 (UniProt P35579) 0.162
STIP1 C461 (UniProt P31948) 0.162
LRPPRC C113 (UniProt P42704) 0.0998
CTNNA1 C461 (UniProt P35221) 0.364
SRI C162 (UniProt P30626) 0.236
CCT6A C282 (UniProt P40227) 0.419
WNT5A C182 (UniProt P41221) -0.086
MPI C309 (UniProt P34949) 0.0873
FDFT1 C374 (UniProt P37268) 0.173
LRPPRC C208 (UniProt P42704) 0.0712
CSK C31 (UniProt P41240) 0.321
UQCRC1 C453 (UniProt P31930) 0.0415
HSPA4 C34 (UniProt P34932) 0.154
IARS C526 (UniProt P41252) 0.00788
CCT6A C406 (UniProt P40227) 0.0852
ETV6 C8 (UniProt P41212) 0.291
MDH2 C212 (UniProt P40926) 0.28
FEN1 C311 (UniProt P39748) 0.136
UniProt P36507_C384 0.24
EIF2S3 C96 (UniProt P41091) -0.26
MTOR C300 (UniProt P42345) -0.0732
PSMC2 C389 (UniProt P35998) 0.00853
RPL22 C25 (UniProt P35268) 0.0333
HSPA4 C38 (UniProt P34932) 0.0942
STIP1 C417 (UniProt P31948) 0.0788
TMPO C570 (UniProt P42166) 0.554
ACAA2 C116 (UniProt P42765) 0.405

No new results follow: entries from further up.
log2 ratio of iodoacetamide-alkyne labeling, inactive:
SRI C162 (UniProt P30626) 0.236
CCT6A C282 (UniProt P40227) 0.419
WNT5A C182 (UniProt P41221) -0.086
MPI C309 (UniProt P34949) 0.0873
FDFT1 C374 (UniProt P37268) 0.173
LRPPRC C208 (UniProt P42704) 0.0712
CSK C31 (UniProt P41240) 0.321
UQCRC1 C453 (UniProt P31930) 0.0415
HSPA4 C34 (UniProt P34932) 0.154
